Laboratory results: PubChem BioAssay AID504808 (Drosophila RNAi Screening Center, 2011)
In all, the deposit lists about 21,000 reagents; this is a random part of those that have a named target and a result. Of all reagents, 18 (0.084%) got an active call. 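Raw counts without plate normalisation, one of two replicates; the ratio scores behind the calls were not deposited.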 A plus sign joins genes that one reagent is predicted to hit. Not given: the amount of reagent, the time to read-out.

Aim: 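Fly genes required to hold E2F transcription in check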 (primary screen)
Cell system: Drosophila S2 cells
Reagent: long dsRNA against Drosophila genes
Measurement: 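Dual luciferase plate measurements; E2F-specific signal taken as firefly over Renilla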
Direction: E2F firefly: higher = more E2F reporter activity; Renilla normaliser: higher = more normaliser reporter signal
Hit rule: 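a knock-down counted as active when the firefly/Renilla E2F signal rose above 50%, a threshold chosen arbitrarily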

| target gene | amplicon | E2F firefly, rep 1 | Renilla normaliser, rep 1 | Call |
| --- | --- | --- | --- | --- |
| PGRP-LB (GeneID 41379) | DRSC14926 | 70508 | 3246 | inactive |
| kek6 (GeneID 43729) | DRSC15299 | 52241 | 3598 | inactive |
| CG12020 (GeneID 38233) | DRSC08226 | 97985 | 4226 | inactive |
| NAT1 (GeneID 46020) | DRSC06854 | 3205 | 198 | inactive |
| Gr10a (GeneID 117501) | DRSC18897 | 79374 | 2743 | inactive |
| Nmdar1 (GeneID 40665) | DRSC12071 | 72882 | 4683 | inactive |
| Nmdar1 (GeneID 40665) | DRSC12356 | 1.37e5 | 7119 | inactive |
| CG1824 (GeneID 32208) | DRSC19796 | 1.38e5 | 6008 | inactive |
| CG17991 (GeneID 43279) | DRSC15294 | 1.05e5 | 5695 | inactive |
| CG14062 (GeneID 43389) | DRSC14725 | 1.20e5 | 6465 | inactive |
| AIMP1 (GeneID 35892) | DRSC07118 | 1.50e5 | 5241 | inactive |
| bab1 (GeneID 38116) | DRSC08379 | 1.00e5 | 4063 | inactive |
| bab1 (GeneID 38116) | DRSC08709 | 96177 | 3296 | inactive |
| Eglp4 (GeneID 37739) | DRSC04438 | 1.05e5 | 4476 | inactive |
| Ir60d (GeneID 7354402) | DRSC04218 | 1.09e5 | 4733 | inactive |
| Jon99Fii (GeneID 43621) | DRSC15430 | 1.30e5 | 6482 | inactive |
| GlcT (GeneID 37516) | DRSC04525 | 79017 | 3364 | inactive |
| Hr39 (GeneID 35398) | DRSC03346 | 75522 | 3767 | inactive |
| Prp39 (GeneID 43399) | DRSC15133 | 1489 | 756 | inactive |
| CG12289 (GeneID 39279) | DRSC09874 | 1.18e5 | 6152 | inactive |
| CG34427 (GeneID 5740165) | DRSC09978 | 96851 | 3560 | inactive |
| FucTB (GeneID 34260) | DRSC02745 | 1.39e5 | 5187 | inactive |
| Usf (GeneID 31384) | DRSC18129 | 1.04e5 | 5681 | inactive |
| cyp33 (GeneID 36984) | DRSC07600 | 75763 | 3919 | inactive |
| Polr2E (GeneID 36160) | DRSC06100 | 1.05e5 | 5171 | inactive |
| Osi15 (GeneID 40771) | DRSC12178 | 1.35e5 | 6170 | inactive |
| COX3 (retired record) (GeneID 192471) | DRSC21279 | 1.30e5 | 7265 | inactive |
| CG10470 (GeneID 35174) | DRSC02061 | 93248 | 4376 | inactive |
| Orc1 (GeneID 35686) | DRSC07496 | 59471 | 3550 | inactive |
| Tsp42Ej (GeneID 35620) | DRSC06113 | 81119 | 3670 | inactive |
| Sec31 (GeneID 35877) | DRSC07131 | 2748 | 216 | inactive |
| CG10576 (GeneID 38645) | DRSC09745 | 75106 | 3290 | inactive |
| CG7567 (GeneID 43479) | DRSC16258 | 1.27e5 | 6419 | inactive |
| CG34375 (GeneID 42715) | DRSC14684 | 1.09e5 | 5586 | inactive |
| CG34375 (GeneID 42715) | DRSC14685 | 96824 | 5162 | inactive |
| CG14341 (GeneID 33301) | DRSC00371 | 1.72e5 | 6968 | inactive |
| Argk1 (GeneID 39041) | DRSC08959 | 1.35e5 | 5214 | inactive |
| Argk1 (GeneID 39041) | DRSC09668 | 76310 | 2903 | inactive |
| Argk1 (GeneID 39041) | DRSC10460 | 74690 | 3633 | inactive |
| w (GeneID 31271) | DRSC17233 | 88009 | 2969 | inactive |
| w (GeneID 31271) | DRSC18850 | 1.20e5 | 6331 | inactive |
| ND-B15 (GeneID 36640) | DRSC06199 | 1.05e5 | 4228 | inactive |
| stg (GeneID 43466) | DRSC17071 | 721 | 720 | inactive |
| hh (GeneID 42737) | DRSC16965 | 1.13e5 | 5516 | inactive |
| CG32111 (retired record) (GeneID 317859) | DRSC09203 | 1.40e5 | 2164 | inactive |
| Atg18b (GeneID 35396) | DRSC03108 | 74608 | 3283 | inactive |
| Acbp2 (GeneID 38784) | DRSC11141 | 1.02e5 | 4022 | inactive |
| Aladin (GeneID 31881) | DRSC18121 | 6998 | 792 | inactive |
| NC2alpha (GeneID 37471) | DRSC04059 | 88604 | 3309 | inactive |
| CG13601 (GeneID 42826) | DRSC14604 | 70627 | 3893 | inactive |
| RhoGAP18B (GeneID 32898) | DRSC19763 | 1.19e5 | 6498 | inactive |
| RhoGAP18B (GeneID 32898) | DRSC20047 | 1.17e5 | 6480 | inactive |
| RhoGAP18B (GeneID 32898) | DRSC20048 | 1.38e5 | 6126 | inactive |
| RhoGAP18B (GeneID 32898) | DRSC20049 | 1.11e5 | 6071 | inactive |
| primo-2 + primo-1 | DRSC16511 | 1.19e5 | 7217 | inactive |
| CG12768 (GeneID 40513) | DRSC11680 | 1.24e5 | 5534 | inactive |
| CG31097 (GeneID 43058) | DRSC14666 | 1.14e5 | 6249 | inactive |

In a second layout: entries from further up.
{"target gene": "NC2alpha (GeneID 37471)", "amplicon": "DRSC04059", "E2F firefly, rep 1": 88604, "Renilla normaliser, rep 1": 3309, "Call": "inactive"}
{"target gene": "CG13601 (GeneID 42826)", "amplicon": "DRSC14604", "E2F firefly, rep 1": 70627, "Renilla normaliser, rep 1": 3893, "Call": "inactive"}
{"target gene": "RhoGAP18B (GeneID 32898)", "amplicon": "DRSC19763", "E2F firefly, rep 1": 1.19e5, "Renilla normaliser, rep 1": 6498, "Call": "inactive"}
{"target gene": "RhoGAP18B (GeneID 32898)", "amplicon": "DRSC20047", "E2F firefly, rep 1": 1.17e5, "Renilla normaliser, rep 1": 6480, "Call": "inactive"}
{"target gene": "RhoGAP18B (GeneID 32898)", "amplicon": "DRSC20048", "E2F firefly, rep 1": 1.38e5, "Renilla normaliser, rep 1": 6126, "Call": "inactive"}
{"target gene": "RhoGAP18B (GeneID 32898)", "amplicon": "DRSC20049", "E2F firefly, rep 1": 1.11e5, "Renilla normaliser, rep 1": 6071, "Call": "inactive"}
